Reference: US20170266166A1, “Compositions and Methods to Inhibit Estrogen Receptor Beta for the Treatment of Renal Cell Carcinoma” (University of Rochester, priority 2014, published 2017)
At least one structure is not confirmed: it was looked up by name or label, or the drawing left a doubt.

How the values were obtained:
Format in all cases: cell-based, human
[1] = test system: RCC cells; assay: migration and invasion of RCC cells co-cultured with HL-60N neutrophils; details: rapamycin treatment of RCC cells
[2] = test system: neutrophils; assay: neutrophil recruitment (transwell infiltration) toward conditioned media of RCC cells; details: 10 ng/ml, CM from treated cells, 3 hrs of incubation
[3] = test system: 786-O cells; assay: neutrophil-promoted RCC invasion assay (HL-60N co-culture); details: 10 ng/ml, HL-60N and 786-O co-culture

## CO[C@H]1C[C@@H]2CC[C@@H](C)[C@@](O)(O2)C(=O)C(=O)N2CCCC[C@H]2C(=O)O[C@H]([C@H](C)C[C@@H]2CC[C@@H](O)[C@H](OC)C2)CC(=O)[C@H](C)/C=C(\C)[C@@H](O)[C@@H](OC)C(=O)[C@H](C)C[C@H](C)/C=C/C=C/C=C/1C [rapamycin]
[1]
  HL-60N-promoted RCC migration: reversed HL-60N-promoted RCC migration
[2]
  neutrophil infiltration through transwell membrane: effectively inhibit
[3]
  neutrophils-enhanced RCC invasion: inhibit the neutrophils-enhanced RCC invasion
